In article PMC11341912 one finds binding data, which are given here for six molecules.

By UniProt entry, the sequences of proteins in these tests, tags left out.
UniProt P17028: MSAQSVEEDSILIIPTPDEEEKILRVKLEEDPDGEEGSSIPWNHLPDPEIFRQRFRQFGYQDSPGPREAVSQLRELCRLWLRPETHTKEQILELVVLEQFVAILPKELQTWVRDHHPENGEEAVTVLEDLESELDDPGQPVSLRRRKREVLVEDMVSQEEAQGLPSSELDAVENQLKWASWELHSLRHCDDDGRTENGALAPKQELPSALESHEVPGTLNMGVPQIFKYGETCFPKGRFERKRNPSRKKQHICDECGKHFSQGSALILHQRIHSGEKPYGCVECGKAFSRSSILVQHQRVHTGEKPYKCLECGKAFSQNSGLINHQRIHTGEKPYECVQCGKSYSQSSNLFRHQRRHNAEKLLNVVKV
UniProt P09874: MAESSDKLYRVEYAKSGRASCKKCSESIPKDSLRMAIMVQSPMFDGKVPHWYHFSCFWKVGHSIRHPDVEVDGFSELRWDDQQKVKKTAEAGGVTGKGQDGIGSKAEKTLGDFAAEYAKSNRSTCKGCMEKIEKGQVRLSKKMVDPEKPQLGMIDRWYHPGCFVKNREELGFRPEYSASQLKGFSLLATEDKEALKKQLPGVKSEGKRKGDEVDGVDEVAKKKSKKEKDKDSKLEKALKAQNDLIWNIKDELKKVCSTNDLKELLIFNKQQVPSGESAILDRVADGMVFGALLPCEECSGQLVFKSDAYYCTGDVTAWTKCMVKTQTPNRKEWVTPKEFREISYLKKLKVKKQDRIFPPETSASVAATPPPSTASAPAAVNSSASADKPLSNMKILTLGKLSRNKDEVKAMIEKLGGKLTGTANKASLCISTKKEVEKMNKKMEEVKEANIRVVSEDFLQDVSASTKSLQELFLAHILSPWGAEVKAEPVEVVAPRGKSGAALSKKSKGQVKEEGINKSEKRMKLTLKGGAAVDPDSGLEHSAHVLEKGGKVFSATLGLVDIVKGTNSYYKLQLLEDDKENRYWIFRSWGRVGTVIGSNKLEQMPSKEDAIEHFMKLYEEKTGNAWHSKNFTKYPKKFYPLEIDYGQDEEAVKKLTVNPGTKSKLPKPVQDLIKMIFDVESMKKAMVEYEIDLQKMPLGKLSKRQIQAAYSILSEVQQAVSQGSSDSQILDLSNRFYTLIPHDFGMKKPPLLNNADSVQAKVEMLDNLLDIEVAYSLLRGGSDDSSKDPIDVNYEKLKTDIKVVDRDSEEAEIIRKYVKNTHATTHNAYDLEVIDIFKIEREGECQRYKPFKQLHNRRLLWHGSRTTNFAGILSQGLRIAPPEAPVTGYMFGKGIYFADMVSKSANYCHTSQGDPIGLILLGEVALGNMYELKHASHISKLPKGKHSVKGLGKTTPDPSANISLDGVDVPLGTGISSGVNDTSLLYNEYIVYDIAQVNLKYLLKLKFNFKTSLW

Experiment [1] addresses ZNF24-FLAG (UniProt P17028). Briefly: co-IP; PARP1-Myc and PINX1/UTP14A/ZNF24-FLAG co-transfected into HEK293T; IP of whole cell lysates with anti-FLAG agarose beads; Triton X-100 lysis buffer with 1 μM Olaparib and 1 μM PARGi, 4 °C; for PINX1 also after DMSO or 1 µM Olaparib for 40 min, then 50 µM MNNG for 15 min or 2 mM H2O2 for 5 min.
Experiment [2] addresses T1, PINX1-FLAG (PIN2/TRF1-interacting telomerase inhibitor 1) (UniProt Q96BK5).
T1 sequence: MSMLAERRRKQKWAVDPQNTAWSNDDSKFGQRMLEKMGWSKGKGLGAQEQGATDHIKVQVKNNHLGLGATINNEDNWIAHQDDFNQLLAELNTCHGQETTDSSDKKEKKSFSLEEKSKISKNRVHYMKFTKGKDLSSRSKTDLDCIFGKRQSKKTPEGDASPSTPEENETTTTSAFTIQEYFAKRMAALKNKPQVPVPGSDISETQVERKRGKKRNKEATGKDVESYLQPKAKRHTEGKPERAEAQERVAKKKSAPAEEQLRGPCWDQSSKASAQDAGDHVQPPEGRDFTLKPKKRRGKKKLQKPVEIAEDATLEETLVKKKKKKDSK
The description is as above.

In experiment [3] the target is T2, UTP14A-FLAG (UniProt Q9BVJ6).
T2 sequence: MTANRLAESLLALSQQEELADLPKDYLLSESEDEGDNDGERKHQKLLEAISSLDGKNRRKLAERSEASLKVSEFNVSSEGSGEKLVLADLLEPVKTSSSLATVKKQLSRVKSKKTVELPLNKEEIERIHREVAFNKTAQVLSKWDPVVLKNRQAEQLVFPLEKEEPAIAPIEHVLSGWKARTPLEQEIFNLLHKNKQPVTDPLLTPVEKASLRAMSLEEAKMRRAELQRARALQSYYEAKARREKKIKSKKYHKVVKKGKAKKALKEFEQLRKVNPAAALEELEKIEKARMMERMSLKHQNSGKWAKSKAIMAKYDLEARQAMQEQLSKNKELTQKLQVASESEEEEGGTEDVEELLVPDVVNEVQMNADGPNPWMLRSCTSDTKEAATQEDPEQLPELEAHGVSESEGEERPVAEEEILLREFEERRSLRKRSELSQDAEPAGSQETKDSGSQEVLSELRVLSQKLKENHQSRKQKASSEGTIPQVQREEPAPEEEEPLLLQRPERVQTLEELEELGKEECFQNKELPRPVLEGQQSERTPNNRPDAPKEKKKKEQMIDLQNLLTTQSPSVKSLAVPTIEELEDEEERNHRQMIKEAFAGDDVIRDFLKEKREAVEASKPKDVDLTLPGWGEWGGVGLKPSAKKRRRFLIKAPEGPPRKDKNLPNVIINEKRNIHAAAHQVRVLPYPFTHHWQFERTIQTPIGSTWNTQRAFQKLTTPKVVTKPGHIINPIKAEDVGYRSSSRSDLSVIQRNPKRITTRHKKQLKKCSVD
Described as above.

In experiment [4] the target is Myc-tagged PARP1 (UniProt P09874). Briefly: co-IP; reciprocal: PARP1-Myc and PINX1/UTP14A/ZNF24-FLAG co-transfected into HEK293T; IP of whole cell lysates with anti-Myc agarose beads.
For experiment [5] the target is unchanged. Briefly: co-IP; truncated versions of PINX1 with PARP1 (Supplementary Fig. 3D); cells, tags and beads not given.
Experiment [6] deals with endogenous PARP1 (human (endogenous in the cells used, line not stated; all cell lines of the paper are human)) (UniProt P09874). In words: co-IP; endogenous proteins; IP with corresponding antibodies and protein A/G beads (Supplementary Fig. 3A); which protein was precipitated is not given.

Results are given in words; binding and its absence hold for the method and conditions named. Binding seen in cells or lysates may run through a third protein. Some entries that bind do so weakly or less than the wild type. For some assays here: Tags and fused reporters may be left off the sequences shown.

On to “Myc-tagged PARP1 (from UniProt P09874 1-1014)”, for which the binding result in experiment [1], in experiment [2] and in experiment [3] was “binds” each time.

For ZNF24-FLAG (from UniProt P17028 1-368), the binding entry in experiment [4] is recorded as “binds”.

B1: C-terminal TID domain-truncated PINX1 (PINX1[1–253aa]) (domain or fragment, UniProt Q96BK5 1-253)
chain: MSMLAERRRKQKWAVDPQNTAWSNDDSKFGQRMLEKMGWSKGKGLGAQEQGATDHIKVQVKNNHLGLGATINNEDNWIAHQDDFNQLLAELNTCHGQETTDSSDKKEKKSFSLEEKSKISKNRVHYMKFTKGKDLSSRSKTDLDCIFGKRQSKKTPEGDASPSTPEENETTTTSAFTIQEYFAKRMAALKNKPQVPVPGSDISETQVERKRGKKRNKEATGKDVESYLQPKAKRHTEGKPERAEAQERVAKKK
For the molecule B1, the binding entry in experiment [5] is recorded as “binds”.

B2: UTP14A-FLAG (protein, UniProt Q9BVJ6 1-771)
chain: T2 sequence
As to B2, the binding result in experiment [4] is “binds”.

B3: endogenous PINX1 (protein, UniProt Q96BK5 1-328)
chain: T1 sequence
On to B3, for which the binding entry in experiment [6] is recorded as “binds”.

B4: PINX1-FLAG (PIN2/TRF1-interacting telomerase inhibitor 1) (protein, UniProt Q96BK5 1-328)
chain: T1 sequence
In the case of B4, in experiment [4], the binding result is given as “binds”.
